Test results from PMC11614281.
Results are given in words; binding and its absence hold for the method and conditions named. In cells and extracts the contact can be indirect. Some results given as binding are weak or reduced against the parent protein; the word gives no strength. For some assays here: Sequences can lack the tags named with a protein.

Sequences of proteins named here, by UniProt entry; tags and fusion partners are left off. Residues count along the entry.
UniProt Q10589, residues 1-161: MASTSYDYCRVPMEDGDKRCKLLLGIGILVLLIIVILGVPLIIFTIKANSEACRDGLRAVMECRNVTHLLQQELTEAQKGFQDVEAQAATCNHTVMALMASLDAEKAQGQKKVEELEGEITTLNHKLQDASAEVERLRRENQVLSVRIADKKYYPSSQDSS
UniProt P04543: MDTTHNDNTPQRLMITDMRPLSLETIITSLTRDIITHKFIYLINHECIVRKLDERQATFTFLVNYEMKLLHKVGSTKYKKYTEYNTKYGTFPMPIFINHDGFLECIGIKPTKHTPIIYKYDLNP
UniProt P12568, residues 26-574: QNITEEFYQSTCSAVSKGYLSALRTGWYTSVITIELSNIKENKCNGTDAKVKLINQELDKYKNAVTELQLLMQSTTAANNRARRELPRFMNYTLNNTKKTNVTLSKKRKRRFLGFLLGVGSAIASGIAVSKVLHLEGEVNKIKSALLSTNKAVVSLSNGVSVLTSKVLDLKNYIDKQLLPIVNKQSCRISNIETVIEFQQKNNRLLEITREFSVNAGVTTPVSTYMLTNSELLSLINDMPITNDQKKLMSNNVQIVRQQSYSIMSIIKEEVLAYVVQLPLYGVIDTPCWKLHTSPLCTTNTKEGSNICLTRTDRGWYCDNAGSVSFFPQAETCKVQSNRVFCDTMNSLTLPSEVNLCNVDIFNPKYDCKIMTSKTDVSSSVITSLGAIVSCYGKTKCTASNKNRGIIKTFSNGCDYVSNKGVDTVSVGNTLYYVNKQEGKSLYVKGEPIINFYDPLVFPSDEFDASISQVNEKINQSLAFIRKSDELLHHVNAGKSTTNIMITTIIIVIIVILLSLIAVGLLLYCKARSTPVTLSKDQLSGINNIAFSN
UniProt P20895: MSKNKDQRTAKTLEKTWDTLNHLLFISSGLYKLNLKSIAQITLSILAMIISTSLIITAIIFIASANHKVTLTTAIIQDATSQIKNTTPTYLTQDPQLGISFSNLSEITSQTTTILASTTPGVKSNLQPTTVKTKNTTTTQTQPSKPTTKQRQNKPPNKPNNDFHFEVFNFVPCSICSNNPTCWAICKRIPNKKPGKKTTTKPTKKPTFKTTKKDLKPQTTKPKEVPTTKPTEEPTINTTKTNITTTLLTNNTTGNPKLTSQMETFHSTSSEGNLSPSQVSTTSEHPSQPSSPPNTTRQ

Key:
[1] = molecular target: BST2 (Bone Marrow Stromal Cell Antigen 2) (human (endogenous in HEp-2)) (UniProt Q10589); assay: co-IP; HEp-2 cells transfected with Flag-NS1 or Flag-NS2 alone; endogenous BST2 precipitated with mouse anti-BST2 (M15) or control IgG on Dynabeads protein G, overnight at 4°C; lysis buffer 50 mM Tris HCl pH 7.4, 150 mM NaCl, 0.1% SDS, 0.5% sodium deoxycholate, 1% NP40; blot with anti-Flag-HRP
[2] = molecular target: BST2 (Bone Marrow Stromal Cell Antigen 2) (human (endogenous in HEp-2)) (UniProt Q10589); assay: co-IP; HEp-2 cells infected with RSV, MOI 1, 24 h; endogenous BST2 precipitated from the lysate with anti-BST2 antibody (control: IgG) on Dynabeads protein G, overnight at 4°C; lysis buffer 50 mM Tris HCl pH 7.4, 150 mM NaCl, 0.1% SDS, 0.5% sodium deoxycholate, 1% NP40; 4 washes; PNGase F before the gel; Western blot with anti-RSV, anti-G and anti-F antibodies
[3] = molecular target: BST2 (Bone Marrow Stromal Cell Antigen 2) (human (endogenous in HEp-2)) (UniProt Q10589); assay: co-IP; HEp-2 cells transfected with Flag-NS1 and HA-NS2 together; endogenous BST2 precipitated with mouse anti-BST2 (M15) or control IgG on Dynabeads protein G, overnight at 4°C; same lysis buffer; blot with anti-Flag-HRP and anti-HA-HRP
[4] = molecular target: BST2 (Bone Marrow Stromal Cell Antigen 2) (human (endogenous in HEp-2)) (UniProt Q10589); assay: co-IP; HEp-2 cells transfected with Flag-NS1 or Flag-NS2 alone; endogenous BST2 precipitated with mouse anti-BST2 (M15) or control IgG on Dynabeads protein G, overnight at 4°C; lysis buffer 50 mM Tris HCl pH 7.4, 150 mM NaCl, 0.1% SDS, 0.5% sodium deoxycholate, 1% NP40; blot with anti-Flag-HRP; remark: listed apart in the source

Molecule: Flag-tagged NS2 (Flag-NS2) (from UniProt P04543 1-124)
- binding [1]: binds weakly

Molecule: RSV F envelope protein (from UniProt P12568 26-574)
- binding [2]: binds

Molecule: RSV G envelope protein (from UniProt P20895 1-298)
- binding [2]: binds

B1: Flag-tagged NS1 (Flag-NS1) (protein, UniProt P0DOE9 1-139)
chain: MGSNSLSMIKVRLQNLFDNDEVALLKITCYTDKLIHLTNALAKAVIHTIKLNGIVFVHVITSSDICPNNNIVVKSNFTTMPVLQNGGYIWEMMELTHCSQPNGLLDDNCEIKFSKKLSDSTMTNYMNQLSELLGFDLNP
- binding [3]: binds
- binding [4]: binds
